Measurements from the supplement of paper PMC10849652.
The other results are listed elsewhere or left out.

Amino acid sequences for entries named in this document (tags omitted). A change or cut given only in a name is not applied to a line headed by its entry.
UniProt O75150, whole entry, looked up: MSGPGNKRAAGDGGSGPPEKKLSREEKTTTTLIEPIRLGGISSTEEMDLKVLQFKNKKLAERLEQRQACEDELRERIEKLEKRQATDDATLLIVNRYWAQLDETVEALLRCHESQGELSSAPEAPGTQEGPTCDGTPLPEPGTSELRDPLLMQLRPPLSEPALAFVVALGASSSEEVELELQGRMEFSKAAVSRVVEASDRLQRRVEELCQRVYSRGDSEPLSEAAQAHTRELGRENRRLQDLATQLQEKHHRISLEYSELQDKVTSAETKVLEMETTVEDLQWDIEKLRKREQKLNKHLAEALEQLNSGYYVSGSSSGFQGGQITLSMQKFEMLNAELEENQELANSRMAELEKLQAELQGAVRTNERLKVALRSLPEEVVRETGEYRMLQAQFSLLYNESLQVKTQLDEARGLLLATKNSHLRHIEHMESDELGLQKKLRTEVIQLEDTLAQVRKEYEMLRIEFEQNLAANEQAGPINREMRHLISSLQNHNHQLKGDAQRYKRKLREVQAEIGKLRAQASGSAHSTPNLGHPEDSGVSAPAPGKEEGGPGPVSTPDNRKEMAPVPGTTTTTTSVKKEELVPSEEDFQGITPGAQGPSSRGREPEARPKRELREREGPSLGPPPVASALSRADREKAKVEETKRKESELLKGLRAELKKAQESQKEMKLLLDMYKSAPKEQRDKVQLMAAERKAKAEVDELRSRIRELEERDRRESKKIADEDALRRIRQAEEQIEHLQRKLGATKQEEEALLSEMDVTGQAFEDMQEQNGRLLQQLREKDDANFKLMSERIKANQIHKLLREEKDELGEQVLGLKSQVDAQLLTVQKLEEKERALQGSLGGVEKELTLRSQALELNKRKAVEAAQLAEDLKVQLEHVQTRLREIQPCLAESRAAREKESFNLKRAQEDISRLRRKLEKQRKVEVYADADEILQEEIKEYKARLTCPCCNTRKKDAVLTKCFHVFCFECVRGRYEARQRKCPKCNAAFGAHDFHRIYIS
UniProt Q9BWH6: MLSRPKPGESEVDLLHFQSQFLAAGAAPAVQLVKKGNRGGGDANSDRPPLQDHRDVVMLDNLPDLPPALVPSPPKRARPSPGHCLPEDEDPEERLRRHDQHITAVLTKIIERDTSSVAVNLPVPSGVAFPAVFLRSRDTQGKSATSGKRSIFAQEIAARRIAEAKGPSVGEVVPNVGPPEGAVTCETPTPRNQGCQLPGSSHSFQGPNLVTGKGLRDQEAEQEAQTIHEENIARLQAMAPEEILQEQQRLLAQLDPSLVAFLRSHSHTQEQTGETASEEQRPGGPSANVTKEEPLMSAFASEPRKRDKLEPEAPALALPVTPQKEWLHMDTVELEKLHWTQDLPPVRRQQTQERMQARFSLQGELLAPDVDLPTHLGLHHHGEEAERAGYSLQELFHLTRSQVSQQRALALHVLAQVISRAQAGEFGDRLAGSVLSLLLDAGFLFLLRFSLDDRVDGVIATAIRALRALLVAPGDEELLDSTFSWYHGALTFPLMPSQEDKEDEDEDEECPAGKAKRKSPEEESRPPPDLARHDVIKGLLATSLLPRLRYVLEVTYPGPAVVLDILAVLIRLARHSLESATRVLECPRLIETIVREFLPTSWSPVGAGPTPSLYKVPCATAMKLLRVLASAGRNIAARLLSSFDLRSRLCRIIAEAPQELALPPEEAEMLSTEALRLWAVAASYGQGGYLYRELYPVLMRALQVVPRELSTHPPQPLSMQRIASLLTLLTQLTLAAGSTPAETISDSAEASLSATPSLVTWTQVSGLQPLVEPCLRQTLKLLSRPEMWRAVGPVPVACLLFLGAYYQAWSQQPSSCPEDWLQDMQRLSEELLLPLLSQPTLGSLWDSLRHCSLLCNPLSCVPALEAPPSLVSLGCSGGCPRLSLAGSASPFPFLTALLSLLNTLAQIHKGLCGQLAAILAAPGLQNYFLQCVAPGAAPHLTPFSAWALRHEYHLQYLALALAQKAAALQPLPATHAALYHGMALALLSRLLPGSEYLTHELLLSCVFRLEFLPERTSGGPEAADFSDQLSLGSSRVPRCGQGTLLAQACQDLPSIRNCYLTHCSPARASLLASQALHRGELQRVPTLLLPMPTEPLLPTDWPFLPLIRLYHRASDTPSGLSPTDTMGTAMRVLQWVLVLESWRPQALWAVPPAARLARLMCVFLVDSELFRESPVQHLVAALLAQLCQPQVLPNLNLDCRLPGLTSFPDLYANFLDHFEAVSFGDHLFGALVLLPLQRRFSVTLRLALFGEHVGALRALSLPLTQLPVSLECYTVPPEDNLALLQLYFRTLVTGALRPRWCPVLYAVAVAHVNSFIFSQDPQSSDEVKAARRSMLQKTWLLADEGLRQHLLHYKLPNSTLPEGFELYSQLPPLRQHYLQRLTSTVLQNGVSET
UniProt Q96DM3: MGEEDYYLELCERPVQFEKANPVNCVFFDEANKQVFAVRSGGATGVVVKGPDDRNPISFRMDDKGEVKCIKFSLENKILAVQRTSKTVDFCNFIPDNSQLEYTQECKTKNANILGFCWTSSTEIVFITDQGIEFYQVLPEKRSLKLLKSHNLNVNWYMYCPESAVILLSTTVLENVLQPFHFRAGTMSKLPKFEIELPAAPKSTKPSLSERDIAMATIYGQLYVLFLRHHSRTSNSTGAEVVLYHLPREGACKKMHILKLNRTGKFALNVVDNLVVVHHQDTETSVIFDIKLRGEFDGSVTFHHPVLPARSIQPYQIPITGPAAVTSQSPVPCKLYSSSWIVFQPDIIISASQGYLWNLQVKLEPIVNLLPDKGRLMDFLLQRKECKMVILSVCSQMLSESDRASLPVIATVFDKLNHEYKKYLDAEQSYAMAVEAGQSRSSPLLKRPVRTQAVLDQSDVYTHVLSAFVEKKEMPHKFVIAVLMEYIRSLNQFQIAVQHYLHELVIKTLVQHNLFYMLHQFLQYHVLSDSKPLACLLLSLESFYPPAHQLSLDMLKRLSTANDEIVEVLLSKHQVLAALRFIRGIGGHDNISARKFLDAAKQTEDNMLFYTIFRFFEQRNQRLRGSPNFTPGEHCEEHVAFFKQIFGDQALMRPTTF
UniProt O43148, whole entry, looked up: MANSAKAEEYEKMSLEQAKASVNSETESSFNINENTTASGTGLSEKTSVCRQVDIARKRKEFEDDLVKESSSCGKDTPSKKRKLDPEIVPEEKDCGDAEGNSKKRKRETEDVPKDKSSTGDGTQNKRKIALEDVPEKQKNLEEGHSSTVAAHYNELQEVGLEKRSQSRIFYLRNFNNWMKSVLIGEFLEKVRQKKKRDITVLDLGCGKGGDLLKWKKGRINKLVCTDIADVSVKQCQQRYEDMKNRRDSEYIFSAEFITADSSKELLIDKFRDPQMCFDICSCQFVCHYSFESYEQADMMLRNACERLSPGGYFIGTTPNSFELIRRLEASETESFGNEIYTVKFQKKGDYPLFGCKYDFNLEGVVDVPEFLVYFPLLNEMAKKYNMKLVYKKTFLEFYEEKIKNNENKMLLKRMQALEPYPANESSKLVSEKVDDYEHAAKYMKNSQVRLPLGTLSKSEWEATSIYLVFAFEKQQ
UniProt P61586, whole entry, looked up: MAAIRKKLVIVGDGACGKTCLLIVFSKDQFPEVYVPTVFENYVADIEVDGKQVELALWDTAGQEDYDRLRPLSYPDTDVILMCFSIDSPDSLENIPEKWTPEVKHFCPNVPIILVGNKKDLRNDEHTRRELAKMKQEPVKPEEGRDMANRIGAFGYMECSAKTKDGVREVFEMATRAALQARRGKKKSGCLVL
UniProt O75695: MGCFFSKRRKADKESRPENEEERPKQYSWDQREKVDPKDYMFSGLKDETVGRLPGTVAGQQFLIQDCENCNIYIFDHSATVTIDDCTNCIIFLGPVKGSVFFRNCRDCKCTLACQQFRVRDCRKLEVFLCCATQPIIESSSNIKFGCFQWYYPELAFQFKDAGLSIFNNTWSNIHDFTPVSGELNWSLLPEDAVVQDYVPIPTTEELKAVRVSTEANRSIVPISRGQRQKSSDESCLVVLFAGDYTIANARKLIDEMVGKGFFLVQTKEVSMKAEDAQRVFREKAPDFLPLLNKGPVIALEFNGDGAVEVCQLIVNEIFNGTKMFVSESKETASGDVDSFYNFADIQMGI
UniProt P49247: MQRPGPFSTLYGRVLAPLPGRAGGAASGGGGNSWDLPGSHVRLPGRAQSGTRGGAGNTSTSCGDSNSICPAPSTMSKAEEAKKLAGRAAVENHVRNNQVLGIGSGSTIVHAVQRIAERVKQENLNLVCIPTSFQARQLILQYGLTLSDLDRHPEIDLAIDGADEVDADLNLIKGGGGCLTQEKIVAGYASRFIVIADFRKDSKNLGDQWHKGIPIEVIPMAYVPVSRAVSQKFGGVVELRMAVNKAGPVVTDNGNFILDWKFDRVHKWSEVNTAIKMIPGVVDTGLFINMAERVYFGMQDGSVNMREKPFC
UniProt P62745, whole entry, looked up: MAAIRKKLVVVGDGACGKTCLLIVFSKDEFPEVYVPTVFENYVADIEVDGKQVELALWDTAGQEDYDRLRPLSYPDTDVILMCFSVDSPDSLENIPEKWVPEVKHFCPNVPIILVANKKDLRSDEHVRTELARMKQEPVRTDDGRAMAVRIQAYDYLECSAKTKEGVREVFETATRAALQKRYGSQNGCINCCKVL
UniProt P10155: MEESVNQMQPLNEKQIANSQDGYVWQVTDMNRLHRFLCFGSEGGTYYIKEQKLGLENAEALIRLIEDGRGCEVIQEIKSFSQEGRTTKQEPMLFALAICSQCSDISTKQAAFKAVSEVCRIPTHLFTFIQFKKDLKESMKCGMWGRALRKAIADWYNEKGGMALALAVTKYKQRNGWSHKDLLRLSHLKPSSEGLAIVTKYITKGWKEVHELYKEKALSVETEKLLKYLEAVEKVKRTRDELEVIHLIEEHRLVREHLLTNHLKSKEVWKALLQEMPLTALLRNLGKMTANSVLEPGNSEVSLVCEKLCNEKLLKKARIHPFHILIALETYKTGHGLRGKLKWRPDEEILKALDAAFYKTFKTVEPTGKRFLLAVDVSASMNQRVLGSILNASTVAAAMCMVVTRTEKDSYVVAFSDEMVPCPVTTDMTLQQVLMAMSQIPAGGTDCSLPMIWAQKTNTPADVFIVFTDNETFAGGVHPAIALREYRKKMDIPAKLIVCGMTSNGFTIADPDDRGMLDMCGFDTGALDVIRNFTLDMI
UniProt Q13546: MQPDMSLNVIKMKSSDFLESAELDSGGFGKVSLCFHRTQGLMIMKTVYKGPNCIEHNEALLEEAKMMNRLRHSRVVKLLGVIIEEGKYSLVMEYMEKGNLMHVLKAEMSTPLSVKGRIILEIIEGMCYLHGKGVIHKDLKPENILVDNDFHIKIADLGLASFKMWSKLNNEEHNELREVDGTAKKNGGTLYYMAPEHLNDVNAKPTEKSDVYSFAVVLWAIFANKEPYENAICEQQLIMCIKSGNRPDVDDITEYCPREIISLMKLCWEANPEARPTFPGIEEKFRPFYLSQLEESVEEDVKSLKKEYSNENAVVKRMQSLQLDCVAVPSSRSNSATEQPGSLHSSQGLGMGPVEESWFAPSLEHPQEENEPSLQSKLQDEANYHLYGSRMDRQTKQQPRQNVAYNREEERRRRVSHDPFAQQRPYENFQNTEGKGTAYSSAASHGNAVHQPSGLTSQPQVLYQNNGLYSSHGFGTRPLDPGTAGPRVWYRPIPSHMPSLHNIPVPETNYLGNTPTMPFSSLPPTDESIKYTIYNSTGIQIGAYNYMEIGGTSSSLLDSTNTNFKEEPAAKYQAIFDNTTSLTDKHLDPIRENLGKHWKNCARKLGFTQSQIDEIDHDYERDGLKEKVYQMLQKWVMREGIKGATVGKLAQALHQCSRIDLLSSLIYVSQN
UniProt O15541: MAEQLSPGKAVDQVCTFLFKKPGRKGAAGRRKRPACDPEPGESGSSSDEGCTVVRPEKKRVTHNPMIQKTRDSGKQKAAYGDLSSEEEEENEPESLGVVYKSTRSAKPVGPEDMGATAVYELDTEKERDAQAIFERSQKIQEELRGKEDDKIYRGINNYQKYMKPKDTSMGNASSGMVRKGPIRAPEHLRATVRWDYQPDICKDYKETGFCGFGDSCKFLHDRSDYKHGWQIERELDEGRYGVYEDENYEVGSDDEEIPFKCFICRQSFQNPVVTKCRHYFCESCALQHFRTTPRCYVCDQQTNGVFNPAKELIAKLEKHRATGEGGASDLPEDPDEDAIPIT
UniProt Q9NWS8: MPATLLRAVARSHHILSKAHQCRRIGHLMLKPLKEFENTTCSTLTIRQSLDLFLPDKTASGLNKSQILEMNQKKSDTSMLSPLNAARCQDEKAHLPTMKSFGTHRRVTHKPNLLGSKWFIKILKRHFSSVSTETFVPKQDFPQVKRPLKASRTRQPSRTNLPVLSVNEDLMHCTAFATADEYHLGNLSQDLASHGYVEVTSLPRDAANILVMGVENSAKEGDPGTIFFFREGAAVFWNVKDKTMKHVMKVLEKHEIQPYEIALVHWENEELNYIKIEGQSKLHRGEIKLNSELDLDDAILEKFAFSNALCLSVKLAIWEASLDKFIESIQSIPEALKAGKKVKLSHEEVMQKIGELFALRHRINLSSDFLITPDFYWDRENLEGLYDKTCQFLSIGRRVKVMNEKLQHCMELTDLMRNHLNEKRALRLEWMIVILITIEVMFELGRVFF

Key:
Assay in all cases: log2 fold change, soluble protein after heating vs DMSO (PISA); higher = thermal stabilisation; K562 lysate, 10 uM; active = over 0.2 and 3.5 SD of the protein, either way, in both replicates (recomputed)
[1] = compound: CS(=O)(=O)CCNCc1ccc(-c2ccc3ncnc(Nc4ccc(OCc5cccc(F)c5)c(Cl)c4)c3c2)o1 [lapatinib]
Outline: (§1)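 Following dounce homogenisation of K562 pellets in PBS pH 7.4 with 1 mM MgCl2, crude extract at 1 mg/mL protein was incubated for 30 min with 10 μM compound. Aliquots were then heated for 3 min over 48°C-58°C and pooled, NP-40 was added to 0.5% at 4°C, and soluble protein was recovered as the supernatant at 21,000xg for 90 min. Channel-sum-equalised TMTpro 16plex LC-MS/MS quantified this protein. Each value, from duplicates, is a log-two fold change in thermal stability relative to solvent controls.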

[2] = compound: CS(=O)(=O)N1CCN(Cc2cc3nc(-c4cccc5[nH]ncc45)nc(N4CCOCC4)c3s2)CC1 [pictilisib]
Outline: as §1

[3] = compound: C[C@@H](Oc1cc(-c2cnn(C3CCNCC3)c2)cnc1N)c1c(Cl)ccc(F)c1Cl [crizotinib]
Outline: as §1

[4] = compound: C[C@H](C1=CC=C(C=C1)C(=O)NC2=C3C=CNC3=NC=C2)N
Outline: as §1

[5] = compound: C[C@H](Nc1ncnc2nc[nH]c12)c1cc2cccc(Cl)c2c(=O)n1-c1ccccc1 [duvelisib]
Outline: as §1

[6] = compound: Cc1cc(Nc2cc(CN3CCOCC3)c3nc(C)c(Cc4ccc(Cl)cc4F)n3n2)n[nH]1 [gandotinib]
Outline: as §1

[7] = compound: Cc1cc(Nc2cc(N3CCN(C)CC3)nc(Sc3ccc(NC(=O)C4CC4)cc3)n2)n[nH]1 [tozasertib]
Outline: as §1

[8] = compound: Cc1ccc(-n2nc(C(C)(C)C)cc2NC(=O)Nc2ccc(OCCN3CCOCC3)c3ccccc23)cc1 [doramapimod]
Outline: as §1

[9] = compound: Cc1ccc(NC(=O)c2ccc(CN3CC[C@H](N(C)C)C3)c(C(F)(F)F)c2)cc1Nc1nccc(-c2cncnc2)n1 [bafetinib]
Outline: as §1

[10] = compound: Cc1cccc(CC(=O)N2CCc3c2ccc(-c2cn(C)c4ncnc(N)c24)c3F)n1
Outline: as §1

Measured: log2 fold change

RPL3 (UniProt P39023)
inactive: [1] -0.096 | [2] 0.009 | [3] 0.092 | [4] 0.094 | [5] 0.021 | [6] -0.064 | [7] 0.008 | [8] -0.042 | [9] 0.017 | [10] -0.082

RPL27A (UniProt P46776)
inactive: [1] 0.007 | [2] 0.038 | [3] -0.03 | [4] 0.029 | [5] 0.073 | [6] -0.016 | [7] -0.013 | [8] -0.009 | [9] 0.028 | [10] 0.048

RNF213, A0A0A0MTC1
inactive: [1] -0.012 | [2] -0.014 | [3] -0.064 | [4] -0.043 | [5] 0.008 | [6] -0.123 | [7] 0.043 | [8] 0.033 | [9] -0.066 | [10] 0.052

RPL13A (UniProt P40429)
inactive: [1] -0.027 | [2] -0.017 | [3] 0.001 | [4] -0.002 | [5] 0.024 | [6] -0.004 | [7] -0.011 | [8] 0.02 | [9] 0.003 | [10] 0.005

RNF40 (UniProt O75150)
inactive: [1] -0.019 | [2] -0.005 | [3] -0.01 | [4] -0.011 | [5] -0.001 | [6] -0.048 | [7] -0.002 | [8] 0.002 | [9] 0.01 | [10] 0.03

RPAP1 (UniProt Q9BWH6)
inactive: [1] -0.012 | [2] -0.027 | [3] -0.026 | [4] -0.026 | [5] 0.021 | [6] -0.002 | [7] 0.018 | [8] 0.001 | [9] -0.041 | [10] 0

RMC1 (UniProt Q96DM3)
inactive: [1] -0.036 | [2] -0.011 | [3] -0.013 | [4] -0.029 | [5] 0.024 | [6] -0.051 | [7] -0.056 | [8] 0.012 | [9] -0.062 | [10] 0.035

ROR2 (UniProt Q01974)
inactive: [1] 0.003 | [2] -0.005 | [3] -0.135 | [4] -0.096 | [5] 0.03 | [6] 0.008 | [7] 0.007 | [8] 0.001 | [9] 0.007 | [10] 0.036

Taken from the entries so far (2 entries):
RNF40 (UniProt O75150)
inactive: [1] -0.019 | [2] -0.005 | [3] -0.01 | [4] -0.011 | [5] -0.001 | [6] -0.048 | [7] -0.002 | [8] 0.002 | [9] 0.01 | [10] 0.03

RPAP1 (UniProt Q9BWH6)
inactive: [1] -0.012 | [2] -0.027 | [3] -0.026 | [4] -0.026 | [5] 0.021 | [6] -0.002 | [7] 0.018 | [8] 0.001 | [9] -0.041 | [10] 0

(list continues)

RIC1 (UniProt Q4ADV7)
active: [9] 0.3
inactive: [1] 0.016 | [2] -0.02 | [3] -0.06 | [4] -0.032 | [5] -0.048 | [6] -0.092 | [7] 0.01 | [8] 0.026 | [10] 0.108

RNMT isoform 2 (UniProt O43148)
inactive: [1] -0.005 | [2] 0.001 | [3] -0.03 | [4] -0.009 | [5] -0.028 | [6] 0.008 | [7] 0.001 | [8] 0.002 | [9] 0.011 | [10] 0.016

RPL22 (UniProt P35268)
inactive: [1] -0.007 | [2] -0.002 | [3] -0.009 | [4] -0.069 | [5] 0.045 | [6] 0.016 | [7] -0.011 | [8] -0.002 | [9] -0.035 | [10] 0.008

RPL10A (UniProt P62906)
inactive: [1] -0.037 | [2] 0.003 | [3] 0.002 | [4] 0.096 | [5] 0.007 | [6] -0.028 | [7] -0.015 | [8] -0.021 | [9] -0.011 | [10] -0.033

RNASEH2B, A0A1B0GUE7
inactive: [1] -0.128

RPL31 (UniProt P62899)
inactive: [1] -0.01 | [2] 0.009 | [3] 0.016 | [4] -0.006 | [5] 0.004 | [6] 0.005 | [7] -0.006 | [8] -0.041 | [9] -0.023 | [10] 0.029

RHOA (UniProt P61586)
inactive: [1] 0.009 | [2] 0.314 | [3] 0.035 | [5] -0.023 | [6] -0.058 | [7] -0.092 | [8] -0.036 | [9] 0.08 | [10] -0.138
active: [4] 0.345

RPL10 (UniProt P27635)
inactive: [1] -0.02 | [2] -0.011 | [3] 0.023 | [4] 0.154 | [5] 0.034 | [6] -0.118 | [7] 0.014 | [8] -0.033 | [9] 0.019 | [10] -0.116

RP2 (UniProt O75695)
inactive: [1] -0.022 | [2] -0.084 | [3] 0.022 | [4] 0.073 | [5] -0.062 | [6] -0.06 | [7] 0.052 | [8] -0.027 | [9] -0.055 | [10] -0.008

RNF220 (UniProt Q5VTB9)
inactive: [1] 0.012 | [2] -0.044 | [3] -0.019 | [4] -0.093 | [5] 0.015 | [6] -0.042 | [7] -0.009 | [8] -0.018 | [9] -0.007 | [10] 0.107

RPIA (UniProt P49247)
inactive: [1] -0.011 | [2] -0.023 | [3] -0.018 | [4] -0.188 | [5] 0.012 | [6] 0.069 | [7] -0.048 | [8] -0.001 | [9] -0.005 | [10] 0.06

RPL34 (UniProt P49207)
inactive: [1] -0.055 | [2] 0.02 | [3] -0.032 | [4] -0.003 | [5] 0.021 | [6] -0.014 | [7] -0.003 | [8] 0.012 | [9] -0.021 | [10] 0.008

RHOB (UniProt P62745)
inactive: [1] 0.041 | [2] 0.061 | [3] -0.041 | [4] -0.021 | [5] 0.298 | [6] 0.017 | [7] -0.116 | [8] 0.096 | [9] 0.114 | [10] -0.028

ROS1 (UniProt P08922)
inactive: [1] -0.155 | [2] -0.2 | [3] 0.011 | [4] -0.331 | [5] -0.048 | [6] 0.059 | [7] -0.028 | [8] 0.12 | [9] -0.214 | [10] 0.199

RO60 (UniProt P10155)
inactive: [1] -0.011 | [2] -0.043 | [3] 0.017 | [4] 0.039 | [5] 0.009 | [6] -0.042 | [7] -0.018 | [8] -0.035 | [9] 0.019 | [10] -0.08

RIPK1 (UniProt Q13546)
active: [6] 0.256 | [7] 0.326 | [10] 0.755
inactive: [1] 0.006 | [2] -0.002 | [3] 0.061 | [4] -0.026 | [5] -0.05 | [8] 0.038 | [9] 0.007

RNF113A (UniProt O15541)
inactive: [1] 0.012 | [2] 0.021 | [3] 0.024 | [4] -0.072 | [5] -0.009 | [6] 0.068 | [7] 0.002 | [8] 0.016 | [9] 0 | [10] 0.034

RILP (UniProt Q96NA2)
inactive: [1] -0.005 | [2] -0.034 | [3] -0.004 | [4] -0.043 | [5] -0.02 | [6] 0 | [7] -0.018 | [8] 0.02 | [9] -0.023 | [10] -0.005

RMND1 (UniProt Q9NWS8)
inactive: [1] 0.02 | [2] -0.073 | [3] -0.021 | [4] -0.059 | [5] -0.077 | [6] 0.01 | [7] 0.06 | [8] -0.071 | [9] -0.07 | [10] 0.024

RPL24 (UniProt P83731)
inactive: [1] -0.01 | [2] 0.041 | [3] 0.012 | [4] 0.041 | [5] 0.015 | [6] -0.016 | [7] -0.028 | [8] -0.012 | [9] 0.049 | [10] -0.002
